# Laboratory results reported in doi:10.1101/2024.06.26.599170.
# These are yes or no findings as the source states them, for the method shown. In cells and extracts the contact can be indirect. Some binding calls cover weakened binding; strength is not graded here. Sequences can lack the tags named with a protein.
# T1: HA-IAA9^P188S (Arabidopsis thaliana) (UniProt Q38827)
# T1 sequence: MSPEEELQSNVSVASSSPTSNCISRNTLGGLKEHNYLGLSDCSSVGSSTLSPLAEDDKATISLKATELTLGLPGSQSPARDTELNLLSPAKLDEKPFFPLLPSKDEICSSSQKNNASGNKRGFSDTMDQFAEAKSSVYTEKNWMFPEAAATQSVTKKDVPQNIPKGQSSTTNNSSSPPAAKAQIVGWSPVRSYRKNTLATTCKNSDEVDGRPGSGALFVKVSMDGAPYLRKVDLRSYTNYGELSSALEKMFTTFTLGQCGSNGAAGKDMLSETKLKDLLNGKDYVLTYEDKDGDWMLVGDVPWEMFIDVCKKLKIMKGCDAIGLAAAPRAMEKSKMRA
# T2: Myc-MED8 (Mediator 8) (Arabidopsis thaliana) (UniProt Q4V3C1)
# T2 sequence: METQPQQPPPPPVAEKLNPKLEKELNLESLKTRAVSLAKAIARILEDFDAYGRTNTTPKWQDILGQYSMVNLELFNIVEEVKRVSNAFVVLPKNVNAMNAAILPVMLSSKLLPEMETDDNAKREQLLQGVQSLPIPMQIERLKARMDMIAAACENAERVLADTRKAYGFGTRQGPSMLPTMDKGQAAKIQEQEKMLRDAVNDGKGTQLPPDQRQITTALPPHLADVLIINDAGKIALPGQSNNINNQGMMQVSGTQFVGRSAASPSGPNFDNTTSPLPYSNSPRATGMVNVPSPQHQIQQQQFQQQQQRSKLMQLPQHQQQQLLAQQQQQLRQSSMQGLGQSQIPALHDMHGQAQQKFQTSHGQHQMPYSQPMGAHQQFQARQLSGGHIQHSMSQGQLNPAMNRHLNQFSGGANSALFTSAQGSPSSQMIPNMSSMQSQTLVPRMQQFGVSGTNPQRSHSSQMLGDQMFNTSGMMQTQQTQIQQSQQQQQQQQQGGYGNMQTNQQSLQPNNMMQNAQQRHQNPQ
# T3: MED8-GFP from transgenic Arabidopsis (35S:MED8-GFP) (Arabidopsis thaliana) (UniProt Q4V3C1)
# T3 sequence: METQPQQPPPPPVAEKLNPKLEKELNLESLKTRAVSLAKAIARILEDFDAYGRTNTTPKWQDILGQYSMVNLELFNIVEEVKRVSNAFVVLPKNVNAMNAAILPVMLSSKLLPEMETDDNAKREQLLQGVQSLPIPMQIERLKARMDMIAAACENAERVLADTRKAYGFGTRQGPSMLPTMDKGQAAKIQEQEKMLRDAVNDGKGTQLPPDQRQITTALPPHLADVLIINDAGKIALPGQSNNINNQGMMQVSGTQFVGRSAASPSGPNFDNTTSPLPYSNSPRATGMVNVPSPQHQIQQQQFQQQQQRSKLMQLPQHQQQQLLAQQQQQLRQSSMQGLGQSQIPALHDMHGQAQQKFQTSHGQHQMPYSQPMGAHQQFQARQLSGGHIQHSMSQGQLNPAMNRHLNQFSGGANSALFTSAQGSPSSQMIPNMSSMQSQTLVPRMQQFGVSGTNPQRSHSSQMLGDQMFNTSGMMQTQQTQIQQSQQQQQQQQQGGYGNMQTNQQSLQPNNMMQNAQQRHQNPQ
# How the values were obtained:
# Experiment in all cases: co-IP
# [1] = target: T1, HA-IAA9^P188S (Arabidopsis thaliana)
# [2] = target: T2, Myc-MED8 (Mediator 8) (Arabidopsis thaliana)
# [3] = target: T3, MED8-GFP from transgenic Arabidopsis (35S:MED8-GFP) (Arabidopsis thaliana)
Binder,binding [1],binding [2],binding [3]
"FLAG-ARF6 (AUXIN RESPONSE FACTOR6), transiently expressed in N. benthamiana (protein, UniProt Q9ZTX8 1-935) MRLSSAGFNPQPHEVTGEKRVLNSELWHACAGPLVSLPPVGSRVVYFPQGHSEQVAASTNKEVDAHIPNYPSLHPQLICQLHNVTMHADVETDEVYAQMTLQPLNAQEQKDPYLPAELGVPSRQPTNYFCKTLTASDTSTHGGFSVPRRAAEKVFPPLDYSQQPPAQELMARDLHDNEWKFRHIFRGQPKRHLLTTGWSVFVSAKRLVAGDSVLFIWNDKNQLLLGIRRANRPQTVMPSSVLSSDSMHLGLLAAAAHAAATNSRFTIFYNPRASPSEFVIPLAKYVKAVYHTRVSVGMRFRMLFETEESSVRRYMGTITGICDLDPTRWANSHWRSVKVGWDESTAGERQPRVSLWEIEPLTTFPMYPSPFPLRLKRPWPPGLPSFHGLKEDDMGMSMSSPLMWDRGLQSLNFQGMGVNPWMQPRLDTSGLLGMQNDVYQAMAAAALQDMRGIDPAKAAASLLQFQNSPGFSMQSPSLVQPQMLQQQLSQQQQQLSQQQQQQQQLSQQQQQQLSQQQQQQLSQQQQQQLSQQQQQQAYLGVPETHQPQSQAQSQSNNHLSQQQQQVVDNHNPSASSAAVVSAMSQFGSASQPNTSPLQSMTSLCHQQSFSDTNGGNNPISPLHTLLSNFSQDESSQLLHLTRTNSAMTSSGWPSKRPAVDSSFQHSGAGNNNTQSVLEQLGQSHTSNVPPNAVSLPPFPGGRECSIEQEGSASDPHSHLLFGVNIDSSSLLMPNGMSNLRSIGIEGGDSTTLPFTSSNFNNDFSGNLAMTTPSSCIDESGFLQSSENLGSENPQSNTFVKVYKSGSFGRSLDISKFSSYHELRSELARMFGLEGQLEDPVRSGWQLVFVDRENDVLLLGDDPWPEFVSSVWCIKILSPQEVQQMGKRGLELLNSAPSSNNVDKLPSNGNCDDFGNRSDPRNLGNGIASVGGSFNY",binds,binds,
"FLAG-ARF6 from transgenic Arabidopsis (P_UBQ10:FLAG-ARF6) (protein, UniProt Q9ZTX8 1-935) MRLSSAGFNPQPHEVTGEKRVLNSELWHACAGPLVSLPPVGSRVVYFPQGHSEQVAASTNKEVDAHIPNYPSLHPQLICQLHNVTMHADVETDEVYAQMTLQPLNAQEQKDPYLPAELGVPSRQPTNYFCKTLTASDTSTHGGFSVPRRAAEKVFPPLDYSQQPPAQELMARDLHDNEWKFRHIFRGQPKRHLLTTGWSVFVSAKRLVAGDSVLFIWNDKNQLLLGIRRANRPQTVMPSSVLSSDSMHLGLLAAAAHAAATNSRFTIFYNPRASPSEFVIPLAKYVKAVYHTRVSVGMRFRMLFETEESSVRRYMGTITGICDLDPTRWANSHWRSVKVGWDESTAGERQPRVSLWEIEPLTTFPMYPSPFPLRLKRPWPPGLPSFHGLKEDDMGMSMSSPLMWDRGLQSLNFQGMGVNPWMQPRLDTSGLLGMQNDVYQAMAAAALQDMRGIDPAKAAASLLQFQNSPGFSMQSPSLVQPQMLQQQLSQQQQQLSQQQQQQQQLSQQQQQQLSQQQQQQLSQQQQQQLSQQQQQQAYLGVPETHQPQSQAQSQSNNHLSQQQQQVVDNHNPSASSAAVVSAMSQFGSASQPNTSPLQSMTSLCHQQSFSDTNGGNNPISPLHTLLSNFSQDESSQLLHLTRTNSAMTSSGWPSKRPAVDSSFQHSGAGNNNTQSVLEQLGQSHTSNVPPNAVSLPPFPGGRECSIEQEGSASDPHSHLLFGVNIDSSSLLMPNGMSNLRSIGIEGGDSTTLPFTSSNFNNDFSGNLAMTTPSSCIDESGFLQSSENLGSENPQSNTFVKVYKSGSFGRSLDISKFSSYHELRSELARMFGLEGQLEDPVRSGWQLVFVDRENDVLLLGDDPWPEFVSSVWCIKILSPQEVQQMGKRGLELLNSAPSSNNVDKLPSNGNCDDFGNRSDPRNLGNGIASVGGSFNY",,,binds
